Library screening results

Sequences of proteins named here, by UniProt entry; tags and fusion partners are left off.
UniProt E9BF75, entry or part of it: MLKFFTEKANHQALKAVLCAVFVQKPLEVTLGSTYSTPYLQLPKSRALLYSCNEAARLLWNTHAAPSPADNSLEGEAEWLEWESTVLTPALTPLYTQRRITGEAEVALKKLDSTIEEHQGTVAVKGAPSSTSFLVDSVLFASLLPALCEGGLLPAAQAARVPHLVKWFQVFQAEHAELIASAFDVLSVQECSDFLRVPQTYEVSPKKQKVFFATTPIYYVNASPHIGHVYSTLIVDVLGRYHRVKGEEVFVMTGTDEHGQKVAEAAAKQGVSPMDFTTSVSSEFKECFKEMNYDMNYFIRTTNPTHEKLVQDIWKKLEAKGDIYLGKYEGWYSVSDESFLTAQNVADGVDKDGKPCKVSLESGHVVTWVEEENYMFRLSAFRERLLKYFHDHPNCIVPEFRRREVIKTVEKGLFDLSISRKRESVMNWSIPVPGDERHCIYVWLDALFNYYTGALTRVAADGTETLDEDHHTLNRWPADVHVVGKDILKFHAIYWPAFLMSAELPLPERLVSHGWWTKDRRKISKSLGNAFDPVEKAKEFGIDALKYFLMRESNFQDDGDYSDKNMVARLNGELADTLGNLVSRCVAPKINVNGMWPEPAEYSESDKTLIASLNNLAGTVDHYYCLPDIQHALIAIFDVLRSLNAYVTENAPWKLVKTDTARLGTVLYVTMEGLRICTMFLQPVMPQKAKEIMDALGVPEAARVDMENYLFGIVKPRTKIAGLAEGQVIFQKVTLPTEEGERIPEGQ

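Methionyl-tRNA synthetase (putative), Leishmania donovani (UniProt E9BF75). Primary screen of methionyl-tRNA synthetase; the read-out is not stated. The test concentration is not given. The values are filed as inhibition. About 68,000 compounds were tested under these conditions; 0.035% (about 24) showed 50% or more at least once.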

All values are in %.
The controls that fix the scale are not given in the record; negative values are as filed.
The compounds are a random part of those screened.

structure	Inhibition
COCCCN(Cc1ccccc1Cl)C1CCS(=O)(=O)C1 (stereo unspecified)	1.166
Cc1nnc2n1CCN(Cc1csc(-c3ccc(F)cc3)n1)C2	12.38
N#Cc1ccc(S(=O)(=O)Nc2ccccc2C#N)cn1	13.71
Cc1cccc(CN2CCS(=O)(=O)[C@@H]3CCN(C(=O)C4CC4)CC[C@@H]32)n1	0.346
CN1CCCN(S(=O)(=O)c2cnn(C)c2)c2cc(Cl)ccc21	13.35
CCN(CC)C(=O)CSc1nc2nc(C)ccc2o1	5.831
CN(Cc1ccc(-n2cccn2)cc1)C[C@@H]1CCCN2CCCC[C@H]12	4.181
Cc1cccc(=O)n1CCCNc1nc(N(C)C)nc2c1CCNCC2	23.31
COc1ccccc1N1CCN(Cc2ncc(C)c(OC)c2C)CC1=O	5.627
COCCC(=O)N1Cc2ccccc2OC2(CCOCC2)C1	4.658
COc1cccc(-c2cc(C(=O)NCCCC(F)(F)F)[nH]n2)c1	6.977
CCCc1csc(-c2ccc(S(C)(=O)=O)cc2)n1	9.922
OCCN1CCc2[nH]nc(C(c3ccccc3)c3ccccc3)c2C1	8.333
CCc1ccc(OCC(=O)N2CCN(CC)CC2)cc1	14.29
Cc1ccc(C(=O)NC2CCCN(S(C)(=O)=O)C2)c(=O)[nH]1 (stereo unspecified)	12.06
O=C(c1ccco1)N1CC[C@@H](N2CCOCC2)[C@@H]1Cc1ccncc1	7.692
CCN(CC)C(=O)CN1CCCC1C(=O)N(C)C (stereo unspecified)	9.422
CCOc1cncc(N2CCN(c3ccccc3O)CC2)n1	26.61
CC(=O)N1CCN(c2ccc(Cl)nn2)C(=O)C1	14.29
COc1ccc(NC(=O)N2CCCC2c2ccncc2)cn1 (stereo unspecified)	10.65
CN(CC1CCOC1)S(=O)(=O)c1cccc(C(=O)N2CCCCCC2)c1 (stereo unspecified)	12.37
OCCC1CN(c2ncnc3[nH]cnc23)CCN1Cc1ccccc1F (stereo unspecified)	5.072
CN(CC1CCCCC1)C(=O)c1ccc(-n2ncc(C#N)c2N)cc1	9.408
c1coc(-c2nc3c(c(N4CCCN5CCC[C@H]5C4)n2)CCNCC3)c1	11.91
Cc1cc(C)n(Cc2cc(C(=O)N[C@H]3CCCCNC3=O)n[nH]2)n1	10.14
O=C(c1ccc[nH]1)N1CCCn2c(nnc2Cn2cccn2)C1	-3.846
O=C(Cc1ccc(F)cc1)NS(=O)(=O)c1ccc(F)c(F)c1	19.84
O=C(NCc1csc(Br)c1)c1ccncc1	9.722
CCN(C)CC1CCN(C(=O)Nc2ccc(-c3csnn3)cc2)C1 (stereo unspecified)	2.486
Cn1nc2c(cc1=O)CN(Cc1nnc(C3CC3)o1)CC2	-1.227
c1ccc(O[C@@H]2CC[C@H]3[C@H]2OCCN3CC2CCOCC2)nc1	14.81
CCc1ccc(C(=O)NCc2cccc(S(=O)(=O)NC)c2)o1	12.57
O=C(c1ccccc1OCC1CC1)N1CCCC1Cn1cccn1 (stereo unspecified)	-0.3436
Cc1ncsc1C(=O)NCCn1nc(C2CCNC2)c2cccnc21 (stereo unspecified)	6.62
COCCN(C)CCN1CC2(CCN(C3CCOCC3)CC2)OC1=O	6.02
O=C(c1ccccc1C(F)(F)F)N1C[C@@H](CN2CCOCC2)[C@@H](CO)C1	18.06
CCc1nc2ccccc2n1C(CC)C(=O)N(C)Cc1nc(C)c[nH]1 (stereo unspecified)	8.732
c1cc(CCN2CCCC2CN2CCCC2)ccn1 (stereo unspecified)	5.017
COCCn1ccc2c(C(=O)Nc3nc4c(s3)CCC4)cccc21	19.63
CC(C)(C)C(N)c1nc(-c2nnc[nH]2)no1 (stereo unspecified)	19.05
Cc1ccnc(C2CN(c3ccnc(C)n3)C2)n1	9.006
Cn1cnc2c(-c3ccccc3)nc(C3CCNCC3)cc21	1.12
CNc1nc(CN2C[C@@H](NC(C)=O)[C@H](c3ccc(C)o3)C2)cs1	12.81
COCCN1CCC2(CC1)CC(c1ccccc1)C(=O)N2C (stereo unspecified)	15.84
O=C(c1cc(CC2(NC3CCCCC3)COC2)no1)N1CCCCC1	0
COC(=O)CCCNC(=O)Nc1ccccc1OC	-3.693
Cc1nc(C)c(-c2nnc(SCC(=O)O)n2C(C)c2ccccc2)o1 (stereo unspecified)	2.688
CN(Cc1ccc(F)cc1)CC1(O)CCCN(CC(C)(C)C)C1=O (stereo unspecified)	14.16
O=C1CC2(CCN(Cc3ccoc3)C2)CN1c1ccc2c(c1)OCO2 (stereo unspecified)	15.02

The first 4 entries again:

* COCCCN(Cc1ccccc1Cl)C1CCS(=O)(=O)C1 (stereo unspecified) : 1.166%
* Cc1nnc2n1CCN(Cc1csc(-c3ccc(F)cc3)n1)C2 : 12.38%
* N#Cc1ccc(S(=O)(=O)Nc2ccccc2C#N)cn1 : 13.71%
* Cc1cccc(CN2CCS(=O)(=O)[C@@H]3CCN(C(=O)C4CC4)CC[C@@H]32)n1 : 0.346%

From ChEMBL document CHEMBL3988442, “University of Dundee, Small-Polar-MMV Screening Library” (2021).